The text below walks through data of the supplement of paper PMC10849652.

The chains behind the UniProt entries cited, without tags or fusion partners. Where a name states a change or a piece, a line headed by the entry shows the natural chain unless it says otherwise.
UniProt P00414, whole entry, looked up: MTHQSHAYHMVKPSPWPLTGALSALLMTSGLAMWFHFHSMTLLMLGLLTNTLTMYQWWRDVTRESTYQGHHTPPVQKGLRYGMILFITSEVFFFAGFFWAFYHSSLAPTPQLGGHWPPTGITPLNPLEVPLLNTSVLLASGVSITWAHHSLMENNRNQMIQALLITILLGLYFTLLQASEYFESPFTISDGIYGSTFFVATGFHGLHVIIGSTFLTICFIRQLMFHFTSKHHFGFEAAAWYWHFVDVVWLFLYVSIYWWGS
UniProt G3V1V0: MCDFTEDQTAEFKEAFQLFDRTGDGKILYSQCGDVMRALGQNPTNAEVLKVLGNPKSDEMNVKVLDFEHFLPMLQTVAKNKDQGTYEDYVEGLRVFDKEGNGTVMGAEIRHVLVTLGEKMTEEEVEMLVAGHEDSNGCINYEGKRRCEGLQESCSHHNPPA
UniProt Q93083: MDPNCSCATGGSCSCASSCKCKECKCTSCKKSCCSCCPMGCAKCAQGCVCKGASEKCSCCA
UniProt Q96QG7: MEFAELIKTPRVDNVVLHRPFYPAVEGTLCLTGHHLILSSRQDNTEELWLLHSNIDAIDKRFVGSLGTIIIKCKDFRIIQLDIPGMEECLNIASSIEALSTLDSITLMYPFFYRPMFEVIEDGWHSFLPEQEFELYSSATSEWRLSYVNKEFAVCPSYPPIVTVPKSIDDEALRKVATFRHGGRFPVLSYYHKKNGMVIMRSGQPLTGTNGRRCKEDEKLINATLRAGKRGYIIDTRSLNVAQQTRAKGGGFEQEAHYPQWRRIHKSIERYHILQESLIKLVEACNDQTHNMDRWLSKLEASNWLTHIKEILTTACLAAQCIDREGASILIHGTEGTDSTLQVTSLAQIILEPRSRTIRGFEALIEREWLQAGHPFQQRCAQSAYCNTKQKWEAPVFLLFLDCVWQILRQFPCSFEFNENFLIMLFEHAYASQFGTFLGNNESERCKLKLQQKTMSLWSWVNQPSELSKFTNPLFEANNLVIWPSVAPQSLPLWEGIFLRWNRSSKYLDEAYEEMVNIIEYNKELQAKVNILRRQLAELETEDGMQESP
UniProt Q9BT17: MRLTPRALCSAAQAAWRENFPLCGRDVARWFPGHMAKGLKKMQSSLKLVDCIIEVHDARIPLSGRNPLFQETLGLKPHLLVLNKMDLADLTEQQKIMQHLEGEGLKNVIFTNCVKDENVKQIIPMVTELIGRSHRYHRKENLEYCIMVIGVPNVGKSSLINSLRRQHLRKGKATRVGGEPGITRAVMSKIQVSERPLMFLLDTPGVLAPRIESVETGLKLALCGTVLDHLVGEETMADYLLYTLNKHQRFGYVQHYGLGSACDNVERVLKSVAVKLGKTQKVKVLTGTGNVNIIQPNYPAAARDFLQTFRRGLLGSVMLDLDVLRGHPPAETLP
UniProt Q96E29: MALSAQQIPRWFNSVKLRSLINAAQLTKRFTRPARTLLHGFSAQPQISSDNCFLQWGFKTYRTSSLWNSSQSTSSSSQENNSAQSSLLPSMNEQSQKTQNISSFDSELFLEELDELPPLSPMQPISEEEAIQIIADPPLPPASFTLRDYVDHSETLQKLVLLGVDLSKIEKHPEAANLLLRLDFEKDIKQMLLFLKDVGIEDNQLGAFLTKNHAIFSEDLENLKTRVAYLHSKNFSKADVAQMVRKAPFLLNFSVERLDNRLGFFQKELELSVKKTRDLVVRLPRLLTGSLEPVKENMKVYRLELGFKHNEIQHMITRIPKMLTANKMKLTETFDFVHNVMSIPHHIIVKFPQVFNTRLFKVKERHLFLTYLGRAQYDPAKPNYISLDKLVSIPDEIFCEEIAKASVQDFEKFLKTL
UniProt Q9BQG0: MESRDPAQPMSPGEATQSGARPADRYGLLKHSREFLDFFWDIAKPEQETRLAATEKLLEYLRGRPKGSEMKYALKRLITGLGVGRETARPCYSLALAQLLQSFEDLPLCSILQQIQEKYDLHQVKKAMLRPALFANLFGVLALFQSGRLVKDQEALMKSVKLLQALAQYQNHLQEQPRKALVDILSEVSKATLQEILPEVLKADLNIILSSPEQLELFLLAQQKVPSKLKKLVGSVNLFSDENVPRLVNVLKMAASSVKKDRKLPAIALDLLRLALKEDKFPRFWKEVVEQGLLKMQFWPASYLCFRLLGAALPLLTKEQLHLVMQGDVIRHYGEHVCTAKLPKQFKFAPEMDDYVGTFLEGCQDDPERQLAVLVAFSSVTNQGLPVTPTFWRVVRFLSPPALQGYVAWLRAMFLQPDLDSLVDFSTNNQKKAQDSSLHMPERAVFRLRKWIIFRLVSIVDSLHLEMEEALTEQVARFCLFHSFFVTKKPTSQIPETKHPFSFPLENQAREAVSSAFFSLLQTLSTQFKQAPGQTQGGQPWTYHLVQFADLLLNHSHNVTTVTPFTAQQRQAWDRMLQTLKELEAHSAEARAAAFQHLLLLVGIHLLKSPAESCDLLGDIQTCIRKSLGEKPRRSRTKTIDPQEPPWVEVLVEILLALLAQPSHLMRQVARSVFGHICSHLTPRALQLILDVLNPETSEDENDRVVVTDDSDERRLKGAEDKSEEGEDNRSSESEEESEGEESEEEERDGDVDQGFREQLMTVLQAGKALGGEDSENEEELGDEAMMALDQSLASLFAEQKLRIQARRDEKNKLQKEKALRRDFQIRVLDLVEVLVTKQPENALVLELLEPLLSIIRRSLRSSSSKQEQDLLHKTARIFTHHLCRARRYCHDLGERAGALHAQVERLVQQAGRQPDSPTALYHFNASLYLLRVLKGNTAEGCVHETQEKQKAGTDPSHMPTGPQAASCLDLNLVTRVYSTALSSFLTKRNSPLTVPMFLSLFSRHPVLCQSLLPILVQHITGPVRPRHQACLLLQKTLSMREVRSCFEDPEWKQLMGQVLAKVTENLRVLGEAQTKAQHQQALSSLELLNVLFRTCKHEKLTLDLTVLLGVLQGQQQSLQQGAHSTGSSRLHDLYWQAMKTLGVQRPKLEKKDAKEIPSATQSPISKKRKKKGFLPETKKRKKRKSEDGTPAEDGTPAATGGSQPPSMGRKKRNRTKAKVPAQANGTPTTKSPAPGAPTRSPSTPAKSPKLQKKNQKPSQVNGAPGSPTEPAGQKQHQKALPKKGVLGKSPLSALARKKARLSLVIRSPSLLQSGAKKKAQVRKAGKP
UniProt Q96H55, whole entry, looked up: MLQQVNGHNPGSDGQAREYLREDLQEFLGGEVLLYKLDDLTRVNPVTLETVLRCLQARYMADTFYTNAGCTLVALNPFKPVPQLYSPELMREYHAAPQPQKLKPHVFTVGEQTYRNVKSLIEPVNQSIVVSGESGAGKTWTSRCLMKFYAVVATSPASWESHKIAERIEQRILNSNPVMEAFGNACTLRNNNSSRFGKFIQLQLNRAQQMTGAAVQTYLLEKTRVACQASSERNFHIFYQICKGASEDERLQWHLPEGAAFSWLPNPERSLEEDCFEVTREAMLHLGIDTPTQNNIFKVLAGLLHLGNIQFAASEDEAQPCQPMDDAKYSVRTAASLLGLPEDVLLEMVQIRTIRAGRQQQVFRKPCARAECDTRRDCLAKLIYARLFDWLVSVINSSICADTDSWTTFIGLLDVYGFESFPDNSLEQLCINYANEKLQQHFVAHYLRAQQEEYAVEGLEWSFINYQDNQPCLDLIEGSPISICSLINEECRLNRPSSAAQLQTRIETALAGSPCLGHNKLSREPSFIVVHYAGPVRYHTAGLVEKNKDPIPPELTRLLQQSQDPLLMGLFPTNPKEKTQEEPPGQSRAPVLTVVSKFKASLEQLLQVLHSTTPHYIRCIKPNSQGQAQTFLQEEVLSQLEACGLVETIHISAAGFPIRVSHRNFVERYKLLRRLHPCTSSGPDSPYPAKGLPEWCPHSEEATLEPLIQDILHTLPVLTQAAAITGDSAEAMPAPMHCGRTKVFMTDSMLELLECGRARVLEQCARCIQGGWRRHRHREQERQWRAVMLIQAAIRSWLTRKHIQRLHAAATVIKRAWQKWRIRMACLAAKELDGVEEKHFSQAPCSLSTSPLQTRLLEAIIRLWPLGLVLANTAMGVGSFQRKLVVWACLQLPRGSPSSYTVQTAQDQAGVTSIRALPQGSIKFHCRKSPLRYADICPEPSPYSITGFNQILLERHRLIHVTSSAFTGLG
UniProt Q15746, whole entry, looked up: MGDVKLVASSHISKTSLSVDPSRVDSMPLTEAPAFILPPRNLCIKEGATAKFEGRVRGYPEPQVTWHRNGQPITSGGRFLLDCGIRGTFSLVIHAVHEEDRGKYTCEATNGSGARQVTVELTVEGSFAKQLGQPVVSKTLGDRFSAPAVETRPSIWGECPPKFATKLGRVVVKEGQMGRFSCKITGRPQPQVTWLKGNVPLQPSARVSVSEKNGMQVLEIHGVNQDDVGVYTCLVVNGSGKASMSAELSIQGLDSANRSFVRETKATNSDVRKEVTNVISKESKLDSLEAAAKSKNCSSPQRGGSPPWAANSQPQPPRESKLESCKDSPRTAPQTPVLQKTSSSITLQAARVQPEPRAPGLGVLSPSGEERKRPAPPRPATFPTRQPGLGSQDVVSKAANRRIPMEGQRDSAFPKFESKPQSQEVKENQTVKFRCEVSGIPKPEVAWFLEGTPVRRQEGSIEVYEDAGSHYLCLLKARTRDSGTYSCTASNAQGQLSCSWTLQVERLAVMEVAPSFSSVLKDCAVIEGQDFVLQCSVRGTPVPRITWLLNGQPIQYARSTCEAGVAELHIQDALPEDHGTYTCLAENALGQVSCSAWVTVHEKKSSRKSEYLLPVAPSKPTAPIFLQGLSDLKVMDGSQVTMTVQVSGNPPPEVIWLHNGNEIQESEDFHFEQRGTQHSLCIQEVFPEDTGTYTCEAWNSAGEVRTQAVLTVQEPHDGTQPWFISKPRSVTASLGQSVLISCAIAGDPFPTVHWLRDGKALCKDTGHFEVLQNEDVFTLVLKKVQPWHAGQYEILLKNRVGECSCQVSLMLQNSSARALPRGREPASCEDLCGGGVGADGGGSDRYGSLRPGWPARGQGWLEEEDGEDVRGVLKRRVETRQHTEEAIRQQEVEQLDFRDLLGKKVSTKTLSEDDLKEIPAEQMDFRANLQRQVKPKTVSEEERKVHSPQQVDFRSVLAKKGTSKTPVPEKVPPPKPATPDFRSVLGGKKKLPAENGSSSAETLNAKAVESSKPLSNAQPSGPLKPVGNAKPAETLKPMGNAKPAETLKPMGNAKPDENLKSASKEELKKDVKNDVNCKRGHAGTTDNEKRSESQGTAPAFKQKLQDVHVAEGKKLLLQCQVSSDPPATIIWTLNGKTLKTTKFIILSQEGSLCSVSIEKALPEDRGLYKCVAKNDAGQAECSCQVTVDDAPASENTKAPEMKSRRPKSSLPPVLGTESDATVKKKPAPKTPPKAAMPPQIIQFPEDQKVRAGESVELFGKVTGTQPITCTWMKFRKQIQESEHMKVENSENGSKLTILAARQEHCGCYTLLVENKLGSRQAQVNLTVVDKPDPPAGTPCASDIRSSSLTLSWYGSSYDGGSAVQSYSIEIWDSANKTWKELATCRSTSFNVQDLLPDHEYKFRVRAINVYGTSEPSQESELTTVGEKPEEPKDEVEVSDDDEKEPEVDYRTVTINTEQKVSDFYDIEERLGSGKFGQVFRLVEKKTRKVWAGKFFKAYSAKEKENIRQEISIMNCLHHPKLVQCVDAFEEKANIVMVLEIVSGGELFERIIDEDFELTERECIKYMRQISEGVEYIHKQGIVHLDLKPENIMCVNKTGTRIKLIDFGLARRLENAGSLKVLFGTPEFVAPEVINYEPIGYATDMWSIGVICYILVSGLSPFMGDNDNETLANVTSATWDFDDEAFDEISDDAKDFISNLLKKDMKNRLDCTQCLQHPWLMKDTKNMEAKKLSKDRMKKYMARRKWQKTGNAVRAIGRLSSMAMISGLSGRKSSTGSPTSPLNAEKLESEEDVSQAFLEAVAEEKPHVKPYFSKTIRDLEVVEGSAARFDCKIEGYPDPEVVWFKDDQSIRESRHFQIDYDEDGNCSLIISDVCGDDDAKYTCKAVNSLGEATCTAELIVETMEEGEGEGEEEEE
UniProt P08590, whole entry, looked up: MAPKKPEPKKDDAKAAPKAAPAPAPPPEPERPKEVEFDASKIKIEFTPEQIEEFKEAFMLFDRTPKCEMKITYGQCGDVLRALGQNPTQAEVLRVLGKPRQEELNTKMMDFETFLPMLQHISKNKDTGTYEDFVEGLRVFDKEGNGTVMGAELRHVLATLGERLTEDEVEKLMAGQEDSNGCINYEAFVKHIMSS
UniProt P03891, whole entry, looked up: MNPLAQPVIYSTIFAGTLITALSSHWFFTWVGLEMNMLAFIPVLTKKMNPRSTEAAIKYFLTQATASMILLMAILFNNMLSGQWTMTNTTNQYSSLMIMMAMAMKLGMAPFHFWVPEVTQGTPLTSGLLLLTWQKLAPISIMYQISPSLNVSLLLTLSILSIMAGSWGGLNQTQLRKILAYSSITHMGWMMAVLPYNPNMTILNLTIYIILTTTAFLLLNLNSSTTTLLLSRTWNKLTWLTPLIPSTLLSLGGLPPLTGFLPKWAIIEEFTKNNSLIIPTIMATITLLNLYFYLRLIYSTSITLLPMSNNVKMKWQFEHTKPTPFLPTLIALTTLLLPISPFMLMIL

The list shows a part of the results.

Compound in one assay: Cc1cc(Nc2cc(N3CCN(C)CC3)nc(Sc3ccc(NC(=O)C4CC4)cc3)n2)n[nH]1 [tozasertib]
In words: log2 fold change, soluble protein after heating vs DMSO (PISA); higher = thermal stabilisation; K562 cells, 10 uM, 30 min; active = over 0.2 and 3.5 SD of the protein, either way, in both replicates (recomputed). In short, it runs like this: (§1)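 K562 cells at 2×10^6 cells/mL were exposed to 10 μM compound for 30 min, then aliquots were heated for 3 min across 48°C-58°C, pooled, and extracted in PBS containing 0.5% NP-40 at 4°C. The supernatant after 21,000xg for 90 min was taken as soluble protein and measured by TMTpro 16plex LC-MS/MS with channel sums equalised. Thermal stability is reported relative to control samples, with values from duplicates. Fold changes are given on a log2 scale.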
In the case of MT-CO3 (UniProt P00414), the log2 fold change is inactive: 0.055.
On the same count and under the same terms, the value for MYO18B isoform 3 (UniProt Q8IUG5) was inactive: 0.048; that for MYL6 (UniProt G3V1V0) was inactive: 0.131; that for MTRES1 (UniProt Q9P0P8) was inactive: -0.114.
Take MTRF1L (UniProt Q9UGC7): the log2 fold change is inactive: -0.021.
The same measure, in the same setting: the value for MT1L (UniProt Q93083) was inactive: 0.091.
Still for that read-out and setting: under MTHFSD (UniProt Q2M296) stands inactive: 0.035.
As for MYH3 (UniProt P11055), the log2 fold change is inactive: -0.097.
As to MTMR9 (UniProt Q96QG7), the log2 fold change was inactive: 0.047.
On the same count and under the same terms, the value for MTSS1 isoform 5 (UniProt O43312) was inactive: 0.116; that for MTFMT (UniProt Q96DP5) was inactive: -0.053.
As to MT-CO1 (UniProt P00395), the log2 fold change was inactive: 0.111.
The same measure, in the same setting: under MTG1 (UniProt Q9BT17) stands inactive: -0.056; under MTURN (UniProt Q8N3F0), inactive: 0.023.
MTA3 (UniProt Q9BTC8): the log2 fold change is inactive: -0.036.
In the case of MTERF3 (UniProt Q96E29), the log2 fold change is inactive: 0.026.
On the same count and under the same terms, under MYBBP1A isoform 2 (UniProt Q9BQG0) stands inactive: 0.372.

Compound in the next assay: Cc1cc(SCc2sc(-c3ccc(C(F)(F)F)cc3)nc2C)ccc1OCC(=O)O
The assay is described as above. In short, it runs like this: as §1
As to MT-CO3 (UniProt P00414), the log2 fold change was inactive: 0.243.
Take MYO19 (UniProt Q96H55): the log2 fold change is inactive: 0.158.
Take MYL6 (UniProt G3V1V0): the log2 fold change is inactive: -0.119.
Still for that read-out and setting: under MTAP isoform 2 (UniProt Q13126) stands inactive: 0.008.
Same read-out and setting: the value for MYH2 (UniProt Q9UKX2) was inactive: -0.594.
Still for that read-out and setting: the value for MSANTD2 (UniProt Q6P1R3) was inactive: 0.039; that for MTRF1L (UniProt Q9UGC7) was inactive: -0.06.
On to MT1L (UniProt Q93083), for which the log2 fold change is inactive: -0.159.
For the target MTHFSD (UniProt Q2M296), the log2 fold change is inactive: 0.009.
Same read-out and setting: under MTMR9 (UniProt Q96QG7) stands inactive: -0.047.
The same measure, in the same setting: the value for MYLK (UniProt Q15746) was inactive: 0.04; that for MSRA (UniProt Q9UJ68) was inactive: 0.128; that for MTG1 (UniProt Q9BT17) was inactive: -0.01.
The same measure, in the same setting: under MTIF3 (UniProt Q9H2K0) stands inactive: 0.041; under MTHFD2L (UniProt Q9H903), inactive: -0.033; under MYL3 (UniProt P08590), inactive: 0.019.
Consider MTA3 (UniProt Q9BTC8), for which the log2 fold change is inactive: 0.032.
On the same count and under the same terms, the value for MTERF3 (UniProt Q96E29) was inactive: -0.089; that for MYBBP1A isoform 2 (UniProt Q9BQG0) was inactive: 0.048.
Same read-out and setting: under MYH6 (UniProt P13533) stands inactive: -0.134.
MT-ND2 (UniProt P03891): the log2 fold change is inactive: 0.101.
MTHFD1, A0A384N5Y3: the log2 fold change is inactive: 0.081.
The same measure, in the same setting: the value for MTHFD1L (UniProt B7ZM99) was inactive: -0.039.

Compound in the next assay: Cc1ccc(-n2nc(C(C)(C)C)cc2NC(=O)Nc2ccc(OCCN3CCOCC3)c3ccccc23)cc1 [doramapimod]
Described as above. In outline: as §1
With MT-CO3 (UniProt P00414), the log2 fold change is inactive: 0.03.
Still for that read-out and setting: under MYO19 (UniProt Q96H55) stands inactive: 0.066; under MYH16 (UniProt Q9H6N6), inactive: 0.399; under MTAP isoform 2 (UniProt Q13126), inactive: 0.119.
The same measure, in the same setting: under MTDH (UniProt E5RJU9) stands inactive: 0.032.
On to MTMR9 (UniProt Q96QG7), for which the log2 fold change was inactive: -0.041.
Turning to MYLK (UniProt Q15746), the log2 fold change is active: 1.42.
With MTMR4 (UniProt Q9NYA4), the log2 fold change was inactive: -0.059.
On the same count and under the same terms, under MT-CO1 (UniProt P00395) stands inactive: -0.063; under MTG1 (UniProt Q9BT17), inactive: -0.135.
Still for that read-out and setting: under MTURN (UniProt Q8N3F0) stands inactive: 0.009; under MYL3 (UniProt P08590), inactive: 0.075; under MT-ND3 (UniProt P03897), inactive: 0.079.
Still for that read-out and setting: the value for MYBBP1A isoform 2 (UniProt Q9BQG0) was inactive: 0.165.
Take MT-ND2 (UniProt P03891): the log2 fold change was inactive: -0.141.

Compound in the next assay: Cc1ccc(C(=O)N(CCCN)[C@@H](c2nc3cc(Cl)ccc3c(=O)n2Cc2ccccc2)C(C)C)cc1 [ispinesib]
Described as above. In outline: as §1
Turning to MT-CO3 (UniProt P00414), the log2 fold change was inactive: -0.009.
On the same count and under the same terms, the value for MUC7 (UniProt Q8TAX7) was inactive: -0.221.
As to MYO18B isoform 3 (UniProt Q8IUG5), the log2 fold change is inactive: -0.379.
The same measure, in the same setting: under MYO19 (UniProt Q96H55) stands inactive: -0.065; under MYL6 (UniProt G3V1V0), inactive: 0.019; under MXRA7 isoform 3 (UniProt P84157), inactive: -0.092.
In the case of MTRF1L (UniProt Q9UGC7), the log2 fold change is inactive: 0.087.
Same read-out and setting: the value for MT1L (UniProt Q93083) was inactive: 0.012.
On the same count and under the same terms, the value for MTMR9 (UniProt Q96QG7) was inactive: -0.056; that for MYLK (UniProt Q15746) was inactive: -0.054.
Take MTMR4 (UniProt Q9NYA4): the log2 fold change is inactive: -0.234.
On to MT-CO1 (UniProt P00395), for which the log2 fold change was inactive: 0.069.
Still for that read-out and setting: the value for MTG1 (UniProt Q9BT17) was inactive: 0.235; that for MYL3 (UniProt P08590) was inactive: 0.042.
On the same count and under the same terms, under MT-ND3 (UniProt P03897) stands inactive: 0.015.
Still for that read-out and setting: under MYNN (UniProt Q9NPC7) stands inactive: -0.024.
As to MTERF3 (UniProt Q96E29), the log2 fold change is inactive: -0.067.
Same read-out and setting: under MYBBP1A isoform 2 (UniProt Q9BQG0) stands inactive: 0.021.
The same measure, in the same setting: the value for MT-ND2 (UniProt P03891) was inactive: 0.336.
On the same count and under the same terms, under MTHFD1, A0A384N5Y3 stands inactive: -0.082; under MTHFD1L (UniProt B7ZM99), inactive: -0.074.
